# Assay results from the supplement of paper PMC6411743.
# ± gives the standard deviation of the averaged measurements. The list shows a part of the results, in another mix than the full data.
# Legend:
# Assay in all cases: NP40-soluble protein abundance relative to vehicle (solubility fold change) (ratio); higher = more soluble protein in presence of AMP-PNP
# [1] = target: T1, UniProt O95379-3|O95379-4
# T1 sequence (whole entry): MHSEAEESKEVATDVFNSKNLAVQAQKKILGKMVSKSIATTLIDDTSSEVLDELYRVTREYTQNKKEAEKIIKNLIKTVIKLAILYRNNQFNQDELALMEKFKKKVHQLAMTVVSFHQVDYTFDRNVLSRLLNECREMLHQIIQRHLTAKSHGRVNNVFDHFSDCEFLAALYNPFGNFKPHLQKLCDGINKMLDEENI
# Outline: (§1)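 Across three independent experiments, values are fold changes against the detergent-processed vehicle for each replicate, based on vsn-normalised intensities. The samples were Jurkat crude lysate treated with eight concentrations (0.1 to 10 mM) for 10 min at room temperature and then 3 min at 37 °C. Lysate was solubilised with 0.8% NP40 and benzonase, ultracentrifuged, and the supernatant analysed by TMT-labelled LC-MS/MS.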
# [2] = target: T2, UniProt O95479 and related entries
# T2 sequence (whole entry): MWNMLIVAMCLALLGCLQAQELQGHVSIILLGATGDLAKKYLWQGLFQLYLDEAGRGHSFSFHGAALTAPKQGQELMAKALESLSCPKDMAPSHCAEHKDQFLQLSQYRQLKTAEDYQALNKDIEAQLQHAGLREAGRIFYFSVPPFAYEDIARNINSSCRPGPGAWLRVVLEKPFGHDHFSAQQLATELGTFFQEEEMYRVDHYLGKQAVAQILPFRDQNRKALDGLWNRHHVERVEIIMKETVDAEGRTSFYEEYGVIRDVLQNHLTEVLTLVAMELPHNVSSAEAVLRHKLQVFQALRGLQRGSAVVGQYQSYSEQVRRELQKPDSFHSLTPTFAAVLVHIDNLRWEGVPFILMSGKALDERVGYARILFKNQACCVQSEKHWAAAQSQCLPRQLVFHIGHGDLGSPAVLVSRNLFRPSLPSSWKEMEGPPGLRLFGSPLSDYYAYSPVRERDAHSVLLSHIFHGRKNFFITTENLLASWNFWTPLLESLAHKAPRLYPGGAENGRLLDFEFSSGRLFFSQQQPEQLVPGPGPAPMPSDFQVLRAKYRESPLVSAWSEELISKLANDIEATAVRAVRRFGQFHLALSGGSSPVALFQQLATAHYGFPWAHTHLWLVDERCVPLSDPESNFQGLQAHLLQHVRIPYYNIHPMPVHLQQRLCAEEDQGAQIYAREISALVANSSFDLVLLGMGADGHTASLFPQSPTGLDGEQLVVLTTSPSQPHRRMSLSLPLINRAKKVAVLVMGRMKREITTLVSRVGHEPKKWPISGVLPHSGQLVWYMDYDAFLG
# Outline: as §1
# [3] = target: T3, UniProt O95487 and related entries
# T3 sequence (whole entry): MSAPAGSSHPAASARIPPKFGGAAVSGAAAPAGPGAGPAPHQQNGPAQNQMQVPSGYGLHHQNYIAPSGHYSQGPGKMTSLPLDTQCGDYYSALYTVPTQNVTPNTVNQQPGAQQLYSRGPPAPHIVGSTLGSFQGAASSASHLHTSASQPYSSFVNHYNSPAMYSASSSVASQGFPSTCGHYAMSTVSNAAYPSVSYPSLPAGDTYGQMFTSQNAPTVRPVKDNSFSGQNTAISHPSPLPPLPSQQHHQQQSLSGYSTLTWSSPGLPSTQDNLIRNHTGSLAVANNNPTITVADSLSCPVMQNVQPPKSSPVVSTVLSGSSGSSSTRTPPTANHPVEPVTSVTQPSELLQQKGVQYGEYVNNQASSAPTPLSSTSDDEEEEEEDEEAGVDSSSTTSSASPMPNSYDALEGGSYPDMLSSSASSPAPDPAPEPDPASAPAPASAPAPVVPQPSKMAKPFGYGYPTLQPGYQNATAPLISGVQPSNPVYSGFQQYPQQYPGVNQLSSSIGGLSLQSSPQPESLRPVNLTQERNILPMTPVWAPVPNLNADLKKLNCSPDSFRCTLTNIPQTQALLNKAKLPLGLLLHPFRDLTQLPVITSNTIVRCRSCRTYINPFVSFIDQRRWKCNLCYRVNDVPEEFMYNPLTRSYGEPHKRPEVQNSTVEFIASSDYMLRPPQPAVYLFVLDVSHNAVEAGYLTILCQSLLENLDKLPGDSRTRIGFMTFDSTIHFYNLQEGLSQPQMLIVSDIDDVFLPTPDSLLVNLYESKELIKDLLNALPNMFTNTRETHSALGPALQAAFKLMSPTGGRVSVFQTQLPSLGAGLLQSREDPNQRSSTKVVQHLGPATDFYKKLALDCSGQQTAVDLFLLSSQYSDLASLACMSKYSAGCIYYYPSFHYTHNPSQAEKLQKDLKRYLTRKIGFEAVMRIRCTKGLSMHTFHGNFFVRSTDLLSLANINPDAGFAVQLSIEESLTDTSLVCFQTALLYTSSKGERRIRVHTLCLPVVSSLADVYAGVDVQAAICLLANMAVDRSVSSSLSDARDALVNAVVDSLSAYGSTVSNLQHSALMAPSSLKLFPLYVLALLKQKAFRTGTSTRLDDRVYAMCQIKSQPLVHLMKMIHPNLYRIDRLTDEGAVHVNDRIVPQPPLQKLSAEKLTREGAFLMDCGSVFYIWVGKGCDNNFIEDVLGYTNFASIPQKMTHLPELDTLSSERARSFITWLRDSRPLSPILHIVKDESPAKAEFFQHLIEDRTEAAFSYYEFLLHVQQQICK
# Outline: as §1
# UniProt O95684-2 = target: T4, UniProt O95684-2
# T4 sequence (whole entry): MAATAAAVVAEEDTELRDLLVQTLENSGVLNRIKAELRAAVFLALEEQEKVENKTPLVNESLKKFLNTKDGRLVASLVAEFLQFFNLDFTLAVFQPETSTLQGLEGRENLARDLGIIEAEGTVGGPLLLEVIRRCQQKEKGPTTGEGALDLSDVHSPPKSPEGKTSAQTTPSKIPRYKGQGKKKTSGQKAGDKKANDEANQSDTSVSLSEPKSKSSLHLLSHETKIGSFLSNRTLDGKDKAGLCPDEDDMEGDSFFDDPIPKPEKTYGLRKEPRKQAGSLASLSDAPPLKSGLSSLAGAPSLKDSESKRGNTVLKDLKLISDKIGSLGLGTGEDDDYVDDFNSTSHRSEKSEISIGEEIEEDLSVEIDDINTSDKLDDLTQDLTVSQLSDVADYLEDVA
# Outline: as §1
# VAMP5 = target: T5, VAMP5 (UniProt O95183)
# T5 sequence (whole entry): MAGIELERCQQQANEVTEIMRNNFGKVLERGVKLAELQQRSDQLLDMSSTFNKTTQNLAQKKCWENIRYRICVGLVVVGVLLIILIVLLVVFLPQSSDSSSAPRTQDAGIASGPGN
# Outline: as §1
structure (smiles),measurement,setting,value
Nc1ncnc2c1ncn2[C@@H]1O[C@H](COP(=O)(O)OP(=O)(O)NP(=O)(O)O)[C@@H](O)[C@H]1O [adenylyl imidodiphosphate],NP40-soluble protein abundance,[1]; concentration: 6mM,0.998 ± 0.026
same,NP40-soluble protein abundance,[1]; concentration: 8mM,1 ± 0.06
same,NP40-soluble protein abundance,[1]; concentration: 10mM,0.938 ± 0.056
same,NP40-soluble protein abundance,[2]; concentration: 1mM,0.988 ± 0.021
same,NP40-soluble protein abundance,[2]; concentration: 2mM,0.978 ± 0.058
same,NP40-soluble protein abundance,[2]; concentration: 4mM,1 ± 0.028
same,NP40-soluble protein abundance,[2]; concentration: 6mM,0.965 ± 0.031
same,NP40-soluble protein abundance,[2]; concentration: 8mM,0.963 ± 0.039
same,NP40-soluble protein abundance,[2]; concentration: 10mM,0.97 ± 0.033
same,NP40-soluble protein abundance,[3]; concentration: 1mM,1.016 ± 0.0092
same,NP40-soluble protein abundance,[3]; concentration: 2mM,1.01 ± 0.04
same,NP40-soluble protein abundance,[3]; concentration: 4mM,1.04 ± 0.025
same,NP40-soluble protein abundance,[3]; concentration: 6mM,1.01 ± 0.021
same,NP40-soluble protein abundance,[3]; concentration: 8mM,1.033 ± 0.0055
same,NP40-soluble protein abundance,[3]; concentration: 10mM,1.03 ± 0.019
same,NP40-soluble protein abundance,UniProt O95684-2; concentration: 1mM,1.01 ± 0.019
same,NP40-soluble protein abundance,UniProt O95684-2; concentration: 2mM,1.06 ± 0.083
same,NP40-soluble protein abundance,UniProt O95684-2; concentration: 4mM,1 ± 0.013
same,NP40-soluble protein abundance,UniProt O95684-2; concentration: 6mM,0.973 ± 0.024
same,NP40-soluble protein abundance,UniProt O95684-2; concentration: 8mM,0.945 ± 0.025
same,NP40-soluble protein abundance,UniProt O95684-2; concentration: 10mM,0.965 ± 0.053
same,NP40-soluble protein abundance,VAMP5; concentration: 1mM,1.02 ± 0.044
same,NP40-soluble protein abundance,VAMP5; concentration: 2mM,1.03 ± 0.048
same,NP40-soluble protein abundance,VAMP5; concentration: 4mM,1.03 ± 0.051
same,NP40-soluble protein abundance,VAMP5; concentration: 6mM,0.991 ± 0.029
same,NP40-soluble protein abundance,VAMP5; concentration: 8mM,1.01 ± 0.045
same,NP40-soluble protein abundance,VAMP5; concentration: 10mM,0.993 ± 0.025
